For this assay, the target named is T1, MTA3 with V5 tag (MTA3V5), metastasis-associated protein 3 (UniProt Q9BTC8).
T1 sequence: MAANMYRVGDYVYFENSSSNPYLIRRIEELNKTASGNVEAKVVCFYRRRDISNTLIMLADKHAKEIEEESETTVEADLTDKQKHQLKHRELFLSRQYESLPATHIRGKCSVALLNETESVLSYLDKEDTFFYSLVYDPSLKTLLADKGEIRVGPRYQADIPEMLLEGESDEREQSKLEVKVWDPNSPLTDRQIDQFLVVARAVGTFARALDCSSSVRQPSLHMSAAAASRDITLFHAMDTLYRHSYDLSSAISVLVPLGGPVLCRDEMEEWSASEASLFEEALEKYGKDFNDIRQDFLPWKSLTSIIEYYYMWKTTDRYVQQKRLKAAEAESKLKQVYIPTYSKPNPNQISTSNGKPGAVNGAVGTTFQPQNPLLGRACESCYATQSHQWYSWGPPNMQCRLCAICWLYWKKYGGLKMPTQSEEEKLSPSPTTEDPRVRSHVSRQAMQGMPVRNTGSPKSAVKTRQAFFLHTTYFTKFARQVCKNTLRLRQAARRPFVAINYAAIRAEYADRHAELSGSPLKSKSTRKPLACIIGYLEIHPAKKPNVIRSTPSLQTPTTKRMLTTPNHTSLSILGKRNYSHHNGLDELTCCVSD
Kind of assay: co-IP; lysate (NETN buffer) of HTR8/SVneo cells overexpressing MTA3V5; 1 mg whole protein precipitated with MTA3 rabbit antibody or V5 antibody against non-specific IgG, magnetic Dynabeads; HDAC1 detected by Western blot. A general note: In western blotting, separated proteins are transferred to a membrane and probed.

By UniProt entry, the sequences of proteins in these tests, tags left out.
UniProt Q13547: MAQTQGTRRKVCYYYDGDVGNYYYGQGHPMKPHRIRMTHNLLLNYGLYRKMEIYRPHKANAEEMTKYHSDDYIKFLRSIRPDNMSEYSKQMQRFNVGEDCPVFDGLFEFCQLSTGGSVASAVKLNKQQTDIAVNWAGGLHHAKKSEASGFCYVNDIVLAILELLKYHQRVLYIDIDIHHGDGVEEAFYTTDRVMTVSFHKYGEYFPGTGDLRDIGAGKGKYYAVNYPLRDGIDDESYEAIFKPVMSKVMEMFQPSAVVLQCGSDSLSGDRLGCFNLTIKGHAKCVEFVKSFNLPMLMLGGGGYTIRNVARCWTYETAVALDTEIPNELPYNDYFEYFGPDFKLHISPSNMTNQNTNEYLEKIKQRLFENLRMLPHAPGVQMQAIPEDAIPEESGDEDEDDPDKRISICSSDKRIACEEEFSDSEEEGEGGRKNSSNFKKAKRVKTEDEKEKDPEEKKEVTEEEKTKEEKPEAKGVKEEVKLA

No constants are given. Whether binding was seen depends on the method and setting. Binding seen in cells or lysates may run through a third protein. Some entries that bind do so weakly or less than the wild type. Sequences can lack the tags named with a protein.

For “histone deacetylase 1 (HDAC1) (from UniProt Q13547 1-482)”, the binding result is reported as “binds”.

For the origin of these results see article PMC5613952.
